{
  "source": "patent US10538475B2",
  "about": "“Amphiphilic cyclobutenes and cylobutanes” (priority 2012, dated 2020)",
  "test": "1D 1H NMR aqueous stability and concentration dependent micelle formation",
  "format": "physicochemical",
  "method": "One-dimensional (1D)^1H-NMR spectroscopy was used to verify the chemical purity, aqueous stability, and concentration dependent micelle formation of eleven fatty acid analogs. Each compound was dissolved in deuterated dimethyl sulfoxide (DMSO-d6) to obtain a stock concentration of 20 mM. Four different concentrations were prepared from the stock solutions for NMR analysis: 1.00 mM, 750 μM, 500 μM, 100 μM. All NMR samples consisted of 600 μL of a deuterated 50 mM potassium phosphate buffer at pH 7.2 with 50 μM of 3 (trimethylsilyl) propionic-2,2,3,3-d4 acid sodium salt (TMSP). Each 600 μL NMR sample contains 30 μL (5%) of DMSO-d6 and was transferred to a 5 mm NMR tube for analysis.\nA Bruker Avance DRX 500-MHz spectrometer equipped with a 5 mm triple-resonance cryoprobe (^1H, ^13C, ^15N) with a z-axis gradient was utilized for all 1D ^1H NMR experiments. Acquisition of NMR spectra was automated using a BACS-120 sample changer and Icon NMR software. All spectra were acquired at 298.15 K with 16 dummy scans, 64 scans, 32K data points, a spectral width of 5482.46 Hz, and a relaxation delay of 1.5 s. The NMR spectra were processed and analyzed using ACD/1D NMR Manager (Advanced Chemistry Development). The resulting 1D ^1H NMR spectra were visually inspected for evidence of micelle formation (peak broadening), or chemical instability/impurities (additional peaks). […]",
  "note": "Some results were stated once for a whole list of compounds, not compound by compound. For at least one compound, name, drawing or mass did not settle the structure.",
  "data": [
    {"molecule": "O=C(O)CCCCCCCC1CC(=O)C1", "note": "[Compound 10, 3-(Octanoic acid, 8-yl)cyclobutanone]", "values": [
      {"measurement": "do not form micelles or other aggregates at concentrations below", "setting": "1H NMR, phosphate buffer pH 7.2", "value": "≥ 1", "unit": "mM"},
      {"measurement": "critical micellar coefficient (CMC)", "setting": "onset of aggregation by 1H NMR of buffer solutions, 50 mM potassium phosphate pH 7.2, 5% DMSO-d6", "value": "≤100", "unit": "µM"}
    ]}
  ]
}
